Changes are numbered by the printed parent chain. Results are given in words; binding and its absence hold for the method and conditions named. Some entries that bind do so weakly or less than the wild type. Sequences can lack the tags named with a protein.
T1: in-line fusion protein of human IL-36R extracellular domain and IL1RAcP extracellular domain expressed with mouse IgG2a Fc tag (human; mouse) (UniProt Q9HB29+Q9NPH3)
T1 sequence (looked up): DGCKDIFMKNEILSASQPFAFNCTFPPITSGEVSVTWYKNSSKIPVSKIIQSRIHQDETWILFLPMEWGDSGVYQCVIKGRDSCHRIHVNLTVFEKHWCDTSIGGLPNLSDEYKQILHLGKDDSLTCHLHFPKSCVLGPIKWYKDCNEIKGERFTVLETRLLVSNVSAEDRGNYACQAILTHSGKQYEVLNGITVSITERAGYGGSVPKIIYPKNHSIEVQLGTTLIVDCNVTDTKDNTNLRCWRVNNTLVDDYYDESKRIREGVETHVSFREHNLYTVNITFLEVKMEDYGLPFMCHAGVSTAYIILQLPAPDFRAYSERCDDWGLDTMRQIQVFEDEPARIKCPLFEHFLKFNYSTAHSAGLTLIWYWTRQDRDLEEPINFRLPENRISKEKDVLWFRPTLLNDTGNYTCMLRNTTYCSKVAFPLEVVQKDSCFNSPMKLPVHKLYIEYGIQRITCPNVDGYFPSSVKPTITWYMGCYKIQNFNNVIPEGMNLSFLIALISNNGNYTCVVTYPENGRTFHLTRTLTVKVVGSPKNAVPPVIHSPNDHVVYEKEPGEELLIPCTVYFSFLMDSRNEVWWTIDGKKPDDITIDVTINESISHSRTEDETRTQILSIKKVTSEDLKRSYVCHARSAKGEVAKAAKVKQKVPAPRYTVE

Chains of the proteins cited; added tags and fusions are not shown. Lines headed by an entry give the natural chain unless they say otherwise; changes in a name come on top.
UniProt Q9NPH3: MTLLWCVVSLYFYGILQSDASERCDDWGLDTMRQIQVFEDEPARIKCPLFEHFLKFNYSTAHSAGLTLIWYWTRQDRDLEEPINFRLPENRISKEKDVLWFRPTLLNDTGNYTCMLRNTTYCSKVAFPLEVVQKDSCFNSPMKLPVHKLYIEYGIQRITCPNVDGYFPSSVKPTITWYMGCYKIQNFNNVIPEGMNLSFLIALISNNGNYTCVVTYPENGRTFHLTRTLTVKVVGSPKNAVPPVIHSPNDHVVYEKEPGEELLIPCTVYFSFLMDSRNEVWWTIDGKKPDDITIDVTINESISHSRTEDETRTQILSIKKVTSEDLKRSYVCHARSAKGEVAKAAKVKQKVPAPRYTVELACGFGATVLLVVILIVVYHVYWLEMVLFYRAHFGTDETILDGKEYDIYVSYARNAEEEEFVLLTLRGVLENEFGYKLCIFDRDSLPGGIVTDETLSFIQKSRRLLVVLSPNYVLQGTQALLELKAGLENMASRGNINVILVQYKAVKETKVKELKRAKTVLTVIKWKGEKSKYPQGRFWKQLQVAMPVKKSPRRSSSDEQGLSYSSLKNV

B1: H4H14699P2 (antibody, human IgG4 S228P, kappa, V domains shown)
VH: EVQLVESGGGLVQPGRSLRLSCAASGFTFDDYAIHWVRQAPGKGLEWVSVISWNSDIIGYADSVKGRFTVSRDNAKNSLYLQMNSLRTEDTALYYCAKGYNWNFFDYWGQGTLVTVSS
VL: EIVLTQSPATLSLSPGERATLSCRASQSVSSYLAWYQQKPGQAPRLLIYNAANRATDIPARFSGSGSGTDFTLTISSLEPEDFAVYYCQQRSNWPLTFGGGTKVEIKR
B2: H4H14700P2 (antibody, human IgG4 S228P, kappa, V domains shown)
VH: B1 VH with I34M, A40T, I57V, G59A, A61S, V70I, R87G, Y100H
VL: B1 VL with A51V, S77G, Y87F
B3: H4H14708P2 (antibody, human IgG4 S228P, kappa, V domains shown)
VH: B1 VH with G10D, I34M, I57V, G59A, A61S, V70I, A97T, Y100H, N101K, N103S
VL: B1 VL with V29I, Y49F, A51V
B4: H4H14706P2 (antibody, human IgG4 S228P, kappa, V domains shown)
VH: B1 VH with A23T, A40S, I57V, V70I, T88A
VL: B1 VL
B5: H4H14728P (antibody, human IgG4 S228P, kappa, V domains shown)
VH: QVQLQESGPGLVKPSQTLSLTCTVSGGSISSADYYWSWIRQHPGKGLEWIGSIYYTGSTYYNPSLKSRLTISIDTSENQFSLKLTSLTAADTAVYYCASEEANWGSHFDSWGQGTLVTVSS
VL: DIQMTQSPSSLSASVGDRVTITCRASQSIDNFLNWYQQKPGKAPKLLIYAASSLQSGVPSRFSGSGSGTDFTLTISSLQPEDFASYYCQHSHSAHPITFGQGTRLEIKR
B6: H4H14731P (antibody, human IgG4 S228P, kappa, V domains shown)
VH: QLQLQESGPGLVKPSETLSLTCTVSGGSISSSNYYWGWIRQPPGKRLEWIGSIYYSGSTYYNPSLKTRVTISVDTSKNQFSLKLTSVTAADTAVYYCAREEAAALTHFDFWGQGTLVTVSS
VL: B5 VL with D30S, F32Y, Y49F, S85T, A94S
B7: H4H14757P (antibody, human IgG4 S228P, kappa, V domains shown)
VH: EVQLVESGGGLVQPGRSLRLSCTASGFTFDDYAMHWVRQAPGKGLEWVSGIRWNGGSIGYVDSVKGRFTISRDNAKKSLHLQMNSLKTEDTALYYCAKDIGDILTGFYGEYGMDVWGQGTTVTVSS
VL: DIQMTQSPSSLSASEGDRVTITCRASQSISSYLNWYQQKAGKAPNLLIYAASSLQSGVPSRFSGSGSGTEYTLTISSLQPEDFATYYCQQSYIIPYTFGQGTKLEIKR
B8: H4H14758P (antibody, human IgG4 S228P, kappa, V domains shown)
VH: EVQLVESGGGLVQPGRSLRLSCAASGFTFDDYAMHWVRQAPGKGLEWVSSVRWNGGIIGYADSVKGRFTISRDNAKNSLYLQMNSLRPEDTALYYCAKDIGDVLTGYYGEYGMDVWGQGTTVTVSS
VL: B7 VL with E15V, T22A, S30T, S31T, A40P, N45K, E70D, Y71F, I94S
B9: H4H14709P (antibody, human IgG4 S228P, kappa, V domains shown)
VH: EVQLVESGGGLVQPGGSLRLSCAASGFTFSDYAMSWVRQAPGKGLEWVSGISGNGGDTYYGDFVKGRFTISRDNSKNTLYLQMNSLRGEDTAAYFCVIDLDYWGQGTLVTVSS
VL: DIQMTQSPSTLSASEGDRVTITCRASQSISSWLAWYQQKPGKAPRLLIYKASILGDGVPSRFSGSGSGTEFTLTISSLQPDDFATYYCHQYNSYLWTFGQGTKVEIKR

Molecular target: T1, in-line fusion protein of human IL-36R extracellular domain and IL1RAcP extracellular domain expressed with mouse IgG2a Fc tag (human; mouse)
Experiment: SPR (Biacore 4000), 25°C and 37°C

Row | binding | Binder
1 | binds | B1
2 | binds | B2
3 | binds | B3
4 | binds | B4
5 | binds | B5
6 | binds | B6
7 | binds | B7
8 | binds | B8
9 | binds | B9
